At least one structure is not confirmed: it was looked up by name or label, or the drawing left a doubt.
Test system: osteoclasts
Assay: Osteoclast function, pit depth on dentine slices
Type: cell-based, mouse
Conditions: inhibitors 100 nM, 72 hr

Row | Compound | osteoclast activity
1 | O=c1cc(N2CCOCC2)oc2c(-c3ccccc3)cccc12 [LY294002] | inhibited osteoclast activity
2 | COC[C@H]1OC(=O)c2coc3c2[C@@]1(C)C1=C(C3=O)[C@@H]2CCC(=O)[C@@]2(C)C[C@H]1OC(C)=O [wortmannin] | inhibited osteoclast activity

Reference: patent US9149477B2, “5-fluoro-3-phenyl-2-[1-(9h-purin-6-ylamino)propyl]-3h-quinazolin-4-one as an inhibitor of human phosphatidylinositol 3-kinase delta” (ICOS CORPORATION, priority 2004, dated 2015)
